# Laboratory results published in the supplement of paper PMC3334620.
# In all, about 33,000 sequences were measured (“E-score (-0.5 to 0.5)”: median about -0.0014, highest 2% from about 0.25 on). The list shows a part of the results.
# Molecular target: T1, Cad1 (UniProt P24813)
# T1 sequence: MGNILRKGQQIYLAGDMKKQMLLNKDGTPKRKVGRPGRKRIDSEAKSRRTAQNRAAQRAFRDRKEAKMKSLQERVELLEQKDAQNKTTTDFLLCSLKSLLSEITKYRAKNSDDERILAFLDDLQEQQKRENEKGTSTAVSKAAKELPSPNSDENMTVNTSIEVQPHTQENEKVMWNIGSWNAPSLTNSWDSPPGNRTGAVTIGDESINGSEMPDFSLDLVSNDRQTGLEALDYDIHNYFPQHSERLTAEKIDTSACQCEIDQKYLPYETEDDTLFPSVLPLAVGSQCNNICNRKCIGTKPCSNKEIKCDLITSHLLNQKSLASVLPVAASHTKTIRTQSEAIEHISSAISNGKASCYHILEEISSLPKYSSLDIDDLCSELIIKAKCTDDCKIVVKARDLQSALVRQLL
# Assay: PBM E-score (8-mer binding enrichment) (E-score (-0.5 to 0.5)); higher = stronger / more preferred TF binding
# Conditions: protein concentration: 100 nM; construct: GST-full length
# Procedure, shortened: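 Yeast transcription factors, full-length or as DNA-binding domains, were expressed with a GST tag using PURExpress in vitro transcription/translation. At about 100-200 nM they were applied to universal all-10-mer Agilent arrays, double-stranded by primer extension on fresh or once-stripped slides. Fluorescent anti-GST detected bound protein, and masliner normalised the scans. E-scores for ungapped eight-base words, pooled with reverse complements, came from the Universal PBM Analysis Suite.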
row,Sequence,PBM E-score
1,ATAAGGAG,-0.143
2,GCCGTTAC,-0.0626
3,CTCCATCA,-0.114
4,GGTGGCAC,-0.149
5,CGAAACCG,0.198
6,GCCACAGA,-0.171
7,CAACTATC,0.0712
8,AATGGGCA,-0.0642
9,CTGTGCAC,-0.204
10,CAACAAGG,0.115
11,AAAAATGA,0.12
12,CAAAGGAC,-0.277
13,ATTTTTAA,0.241
14,CGATGGTA,0.0436
15,ACGCGCCA,-0.0612
16,AGTCAAGC,-0.226
17,GCAACACC,0.102
18,AATAACGG,0.253
19,GACGATGC,0.0139
20,CCACCCAA,-0.137
21,AGCTACGG,-0.113
22,TCGCGAGA,0.165
23,ATGAATAA,0.189
24,GACGGACC,0.142
25,AGGGAACT,-0.19

# Given bar-delimited: entries from further up
row | Sequence | PBM E-score
11 | AAAAATGA | 0.12
12 | CAAAGGAC | -0.277
13 | ATTTTTAA | 0.241
14 | CGATGGTA | 0.0436
15 | ACGCGCCA | -0.0612

# Remaining list, next part:

row,Sequence,PBM E-score
1,GCTATGGA,-0.0753
2,CAAGGGCG,-0.228
3,ATCTGGGA,-0.016
4,CTCCTTCC,-0.19
5,ACGCAGAT,-0.0666
6,CGCGCATC,-0.0854
7,GAATCAGA,0.0939
8,AGATAGAC,0.0347
9,ATATATGC,0.134
10,ACGCTTGG,-0.0308
11,CTGCTTGA,-0.114
12,CAAGATTC,0.0824
13,ACAGTATC,0.0125
14,AGCTAACT,-0.087
15,CTACGATA,0.0977
16,GTGGCGCA,-0.0767
17,TCCTGAAA,0.0543
18,CCGTCCAC,0.0714
19,AGGTTATC,-0.0475
20,AGACTGTA,-0.0872
21,ATCACGTC,0.179
22,AATGAAAA,0.152
23,ACTGTCGG,0.00644
24,AATGGTGG,-0.068
25,AGATCGGG,-0.173

row,Sequence,PBM E-score
1,GCGTCGGA,0.144
2,ATAAAAGA,-0.0385
3,GCTCTAAA,0.0281
4,CCTATTCC,-0.0703
5,AGGATCCG,-0.214
6,ATGTCAAC,0.086
7,TAAACACA,0.215
8,ACAAAGCC,0.0605
9,AGGTTCGA,0.101
10,AATGATTG,0.0196
11,CGGTTTAG,0.025
12,AGCAGAAT,0.0895
13,GGGTGACA,-0.0352
14,TCCAGCAA,0.0151
15,AGTCGGAA,0.0204
16,CTTTTTTA,0.109
17,CAACATAG,-0.073
18,CAAACCTA,0.0759
19,AGCATTCC,0.07
20,TGATATCA,-0.0316
21,ATTATGCG,0.209
22,ATAGGATC,0.0502
23,ACTGTGAG,0.0681
24,GCTTACCA,0.255
25,CTATCACA,0.192

row,Sequence,PBM E-score
1,ACCTACTA,0.11
2,TTACCGAA,0.173
3,GCGTCTCA,-0.0901
4,ACCGCCCA,-0.242
5,AAGAGACA,0.107
6,AACAGGGC,0.0552
7,CCGGGGTA,-0.148
8,CCAGGGGG,-0.433
9,AATGTGGG,-0.0491
10,ACTGGCCC,-0.192
11,GCGAACAA,0.275
12,CTCAAATC,-0.117
13,AACCAAAG,0.0578
14,CCACGGCC,-0.168
15,CGGGCATA,-0.0874
16,AAGCTGCG,0.00929
17,TAACCGGA,0.0582
18,CACTACAC,0.028
19,CGTTTGGA,-0.128
20,CTTTGGCC,0.117
21,ACCTTGAT,0.0201
22,TGATGTAA,0.137
23,GTGGTTCA,0.232
24,AATGAGAC,0.0131
25,TCAACCAA,-0.0303

row,Sequence,PBM E-score
1,ATTACGTA,0.392
2,GTTAGAAC,0.185
3,AGCTCGGG,-0.0691
4,GAGTAAAC,0.00921
5,AGTACCAG,0.0586
6,ACCTCTGC,-0.0678
7,GGACGTGA,-0.0466
8,AGTCTGTG,-0.0498
9,AATGCTTC,0.00521
10,AATCAGTA,0.135
11,GCGATGTA,0.0688
12,CTAAAGAC,-0.0173
13,CCAAGACC,-0.0342
14,ATCGTTCA,0.0567
15,AGATATAA,0.0662
16,CTTTTTCA,0.0128
17,ACTGATTG,0.0651
18,AGGGAACG,0.00514
19,AACCTATT,-0.0253
20,CCCTAAGA,-0.203
21,CCATGATC,-0.0206
22,ATCCACCC,-0.17
23,ACCTGGCG,-0.24
24,TCAGTGAA,0.0582
25,GCTAGGGA,-0.0885

row,Sequence,PBM E-score
1,GGCCTAAC,0.108
2,CAACTGCC,0.0955
3,ATTCTGGC,-0.00565
4,AAAGAAAC,0.0847
5,GATCCAGC,-0.157
6,AAAAATCC,0.126
7,CCACGTAC,-0.223
8,CAGCGAGA,-0.0281
9,ATGAGCAC,-0.109
10,ACGTGAAG,-0.0195
11,CGGGGAAG,-0.262
12,AGCTATAA,-0.143
13,AGCCTTAA,0.0172
14,AGGAGATC,-0.065
15,AACAAGTG,-0.072
16,AAGGGTAC,-0.163
17,GTGGAGCA,-0.193
18,AAGCATTG,0.0841
19,GAACGGAC,-0.0974
20,CGACCCAC,-0.0108
21,AGGAAGCC,-0.149
22,AATCTTCA,0.224
23,AGTATTCC,0.0466
24,GCTCCGAA,0.0968
25,CAGCACTA,0.0574

row,Sequence,PBM E-score
1,AAGTATTG,0.0607
2,GGAGCCGA,-0.18
3,CCCAGTTC,0.064
4,TATTTGCA,0.128
5,TGTCCACA,0.128
6,ACACTGAT,0.0356
7,GTGTTTGA,0.125
8,CAAAGTCA,0.0198
9,AGATGCAC,-0.184
10,CTATTCGA,0.0291
11,CTTGCCGC,-0.145
12,GAAGCTTC,0.182
13,AAAAATGC,0.0411
14,GAATTCAA,0.1
15,CCGAGGTA,-0.0142
16,GGCATCCA,-0.263
17,GGTTAGCA,-0.0859
18,CTACGCAC,-0.134
19,ATTACACC,0.108
20,CGTTACAC,-0.0163
21,GCGTTTCA,-0.017
22,CCCTTGGA,0.00683
23,CCAGCGTA,-0.0528
24,GGTGTCCA,0.136
25,ACTGAAAG,0.135

row,Sequence,PBM E-score
1,ACTATTTA,0.139
2,CGATCGAA,0.106
3,ATGGCGCA,0.0449
4,AATCCGCG,0.13
5,CCTACCCG,-0.0239
6,GAGTAGTA,0.0165
7,CCAGTACC,-0.0701
8,CACATAGC,-0.0297
9,AGCCGGGG,-0.193
10,CAATGGCA,0.0467
11,AGCTATGC,-0.18
12,AATTCTGT,0.0871
13,GCCGAACC,0.076
14,GGTGGGAC,-0.253
15,AACAATTA,0.192
16,AACTATCC,-0.154
17,CTACTTAC,-0.0322
18,CATCTGAC,-0.226
19,CACTCGGA,0.189
20,ACCCCGCT,-0.074
21,TACCTGCA,-0.0932
22,ACTCCTGA,0.00881
23,AACCACGT,0.0327
24,GATAGATC,0.0641
25,CCAGTTGA,-0.138

# Three entries picked at random from the list so far:
row,Sequence,PBM E-score
25,GCTAGGGA,-0.0885
2,ATAAAAGA,-0.0385
14,TCCAGCAA,0.0151

# Next part:

row,Sequence,PBM E-score
1,GAGAAAGC,0.0827
2,CCGCTACC,-0.072
3,AGACACTA,0.15
4,GATAGGGA,-0.201
5,ACCCAAAT,0.0208
6,AATCATAA,0.146
7,TAAGTGCA,0.109
8,ATGTGGTC,0.0547
9,GGATGCTA,-0.0527
10,ATGTCCCA,-0.242
11,ATTCCAAG,0.107
12,AGTCGCCG,0.0268
13,AAGTTGTC,0.0742
14,CAGCTCGA,0.0283
15,CTGTTCCC,-0.223
16,CGGGGATC,-0.22
17,GAAATCAC,0.166
18,AAAATTCT,-0.00425
19,AGTACACG,-0.0321
